# Test results as given in PubChem BioAssay AID1508600 (Functional Genomics Laboratory (NCATS/FGL), 2020).
# About 3,700 (7%) of roughly 53,000 sequences were called active.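 How the source made its calls: active means gene knockdowns whose robust z-score for IL-1 alpha signal is at least 2 or at most -2, so actives lie on both sides; inactive means the rest.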 This is one part of the list.
# Experiment: Components of the Cytosolic LPS Sensing Pathway: Gene Identification via Genome-wide siRNA Screen;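 further: robust z of the log signal after scaling to non-targeting control siRNA wells of the plate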
# Conditions: RAW264.7 macrophages, IL-1a HTRF, actives lie on both sides, screened at 100 nM (by protocol), cells primed 5 h with Pam3CSK4 first
# Method in brief: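 Read-out: IL-1a HTRF on supernatant, divided by plate negative-control median ×100, log-transformed and converted to robust z-score. Cells were RAW264.7 given 100 nM siRNA, Pam3CSK4-primed 5 hours, then LipidA-transfected 24 hour.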
row,Sequence,z-score
1,CGAAAACAGUACGAUGCUUTT against Dnajb11,inactive: 1.03
2,GGCGCAACGAAUAAAAAUATT against D630023F18Rik,inactive: -0.581
3,GGCGAUCAUAAACAGCAAUTT against Smyd3,inactive: -1.19
4,GAUGGACAAUCUCAUGGAUTT against Pcp2,inactive: 0.932
5,GGUCCUACUGAAAACGCAUTT against Tmem229b,inactive: -1.79
6,GCGGCUAUGUUACAGGAGCTT against Prmt5,inactive: -0.493
7,GGUGAAGCAUCAGUGACAATT against Ubxn4,inactive: 0.734
8,GCUAAUUGUUCACUAAAGGTT against 1700029H14Rik,inactive: 0.655
9,CCCUGUGACUCCAAAAUGATT against Dbh,inactive: -1.01
10,GGCCAGGAUAGCACUUCUUTT against Arsb,inactive: -0.358
11,CCAAGCAUUACAGAAACCATT against Olfr1148,inactive: -0.917
12,GGCCGAAAAUUUGUUUGUATT against Pcdhga9,inactive: 0.349
13,GCAUUGUAAAGUUUGUACATT against Dnaja2,inactive: 1.68
14,GGCUUGCCAUCGUAAAUCCTT against 1700019M22Rik,inactive: -1.69
15,GGCAAAUAUUUCCAAGUACTT against Cpq,inactive: -1.57
16,GCUAUUUAGUUAGUUGUGUTT against Acbd3,inactive: 0.334
17,GGGACUAGAUCAUUUUCUGTT against D630028G08Rik,inactive: 0.675
18,GGGUGCUAAAUCUUUUUGATT against Ccnf,inactive: 1
19,GGAUCCUCGGGAGUACAUGTT against Crybg3,inactive: 0.287
20,CCCUGUCACAACAUUCUCATT against Olfr1426,inactive: -0.289
21,GGCAUUGGUUCCUACAAGATT against Gm773,inactive: -0.118
22,GGCUUACCUGUACAUUGAUTT against Sptlc3,inactive: -0.558
23,GCCAACAAGUUUAUCACUATT against Hoxb13,inactive: -1.23
24,GGAGGAAAAGUCUUGUAGUTT against Armcx1,inactive: 0.296
25,GGAUGUUUUAACUUGGAAATT against Sema5a,active: 2.25
26,GGUAUAAAAUGGAAAACUCTT against Lpar4,inactive: 1.42
27,GCAUGCGCCCUAAAGGAAATT against Zmynd15,inactive: 0.687
28,GGAUCCCUCAUUCGUCCCUTT against D430018E03Rik,inactive: 0.23
29,GCUCCAAUCGGUGAUGUCUTT against Pla2g7,inactive: -1.69
